Reference: publication PMC6102278
Results are given in words; binding and its absence hold for the method and conditions named. In cells and extracts the contact can be indirect. Some binding calls cover weakened binding; strength is not graded here.

The chains behind the UniProt entries cited, without tags or fusion partners. Where a name states a change or a piece, a line headed by the entry shows the natural chain unless it says otherwise.
UniProt P25445: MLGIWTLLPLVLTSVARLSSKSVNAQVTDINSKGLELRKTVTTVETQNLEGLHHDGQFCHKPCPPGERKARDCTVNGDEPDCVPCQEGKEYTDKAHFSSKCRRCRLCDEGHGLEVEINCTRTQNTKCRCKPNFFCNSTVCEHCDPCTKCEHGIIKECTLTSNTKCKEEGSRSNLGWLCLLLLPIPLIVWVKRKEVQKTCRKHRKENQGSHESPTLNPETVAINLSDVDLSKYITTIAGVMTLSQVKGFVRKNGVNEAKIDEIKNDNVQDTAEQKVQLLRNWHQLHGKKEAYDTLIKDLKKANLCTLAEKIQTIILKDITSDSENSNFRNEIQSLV
UniProt P40763: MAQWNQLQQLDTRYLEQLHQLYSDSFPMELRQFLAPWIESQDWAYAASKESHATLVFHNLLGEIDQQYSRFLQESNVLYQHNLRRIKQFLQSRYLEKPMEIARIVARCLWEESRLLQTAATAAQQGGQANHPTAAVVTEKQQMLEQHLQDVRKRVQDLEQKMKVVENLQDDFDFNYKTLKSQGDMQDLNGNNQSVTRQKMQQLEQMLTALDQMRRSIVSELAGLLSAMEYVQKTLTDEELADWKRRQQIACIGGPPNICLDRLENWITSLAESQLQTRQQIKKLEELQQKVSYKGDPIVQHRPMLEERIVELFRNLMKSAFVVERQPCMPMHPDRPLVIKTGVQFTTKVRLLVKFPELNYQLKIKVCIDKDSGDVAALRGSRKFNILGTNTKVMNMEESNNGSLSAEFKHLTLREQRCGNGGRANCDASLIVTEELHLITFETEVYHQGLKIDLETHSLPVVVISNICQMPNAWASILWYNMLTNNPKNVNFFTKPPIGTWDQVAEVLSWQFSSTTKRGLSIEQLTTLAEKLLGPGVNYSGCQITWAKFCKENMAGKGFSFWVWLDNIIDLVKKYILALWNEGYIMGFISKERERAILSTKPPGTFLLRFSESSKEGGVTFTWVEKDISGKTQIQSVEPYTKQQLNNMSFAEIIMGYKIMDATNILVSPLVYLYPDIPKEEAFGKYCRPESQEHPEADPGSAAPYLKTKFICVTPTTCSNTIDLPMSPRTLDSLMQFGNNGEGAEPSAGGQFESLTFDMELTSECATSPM
UniProt P07947: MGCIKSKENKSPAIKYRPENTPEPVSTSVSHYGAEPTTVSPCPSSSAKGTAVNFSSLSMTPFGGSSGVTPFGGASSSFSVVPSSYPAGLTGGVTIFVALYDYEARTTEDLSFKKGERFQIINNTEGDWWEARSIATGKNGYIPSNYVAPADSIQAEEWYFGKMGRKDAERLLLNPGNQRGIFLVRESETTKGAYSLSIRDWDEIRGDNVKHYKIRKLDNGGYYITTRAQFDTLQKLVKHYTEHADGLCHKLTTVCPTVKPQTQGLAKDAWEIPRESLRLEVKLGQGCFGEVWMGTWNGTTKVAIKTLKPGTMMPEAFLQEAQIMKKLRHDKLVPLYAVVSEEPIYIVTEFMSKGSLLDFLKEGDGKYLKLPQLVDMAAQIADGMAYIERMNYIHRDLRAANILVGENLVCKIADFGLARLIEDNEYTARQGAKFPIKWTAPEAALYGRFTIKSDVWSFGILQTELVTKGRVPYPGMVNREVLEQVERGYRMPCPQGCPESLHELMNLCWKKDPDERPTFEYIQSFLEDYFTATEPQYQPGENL

Experiments:
[1] = biological target: Fas.Y291D (pY291 Fas proxy, pro-survival form of Fas) (UniProt P25445); experiment: co-IP; Fas immunoprecipitated with anti-Fas (APO-1-3) on protein G beads from the postnuclear supernatant of SW480 stable cell lines, 4 °C, 18 h; cells synchronized 24 h, without or with 10 ng/ml EGF for 5 minutes; immunoblotting
[2] = biological target: pY1068 EGFR (activated EGFR), nuclear fraction of SW480 (human (endogenous in SW480)) (UniProt P00533); experiment: co-IP; EGFR co-immunoprecipitation on nuclear fractions of synchronized SW480 cells treated with EGF for 15 minutes as in Figure 6C; immunoblotting
[3] = biological target: pY291 Fas (Fas phosphorylated at Y291), nuclear fraction of SW480 cells overexpressing Fas (UniProt P25445); experiment: co-IP; Fas co-immunoprecipitation on nuclear fractions of synchronized SW480 cells overexpressing Fas, treated with indicated concentrations of EGF for 15 minutes; immunoblotting
[4] = biological target: Fas (TNFRSF6/CD95), endogenous, nuclear fraction of SW480 cells (human (endogenous in SW480)) (UniProt P25445); experiment: co-IP; IP-FCM (immunoprecipitation detected by flow cytometry): polystyrene beads coated with anti-Fas (Apo-1-3) incubated with lysate of the nuclear fraction of SW480 cells; beads stained with antibodies against pY1068 EGFR or pY705 STAT3 and read by flow cytometry

| Substance | binding [3] | binding [4] | binding [1] | other results |
| --- | --- | --- | --- | --- |
| STAT3, endogenous in SW480 (from UniProt P40763 1-770) | – | – | binds | – |
| Yes-1, endogenous in SW480 (from UniProt P07947 1-543) (enzyme) | – | – | binds | – |
| epidermal growth factor receptor (EGFR/HER1/ErbB1), endogenous in SW480 (from UniProt P00533 25-1210) | – | – | binds | – |
| pY291 Fas (Fas phosphorylated at Y291), nuclear fraction of SW480 cells overexpressing Fas (from UniProt P25445 26-335) (receptor) | – | – | – | binding [2]: binds |
| pY705 STAT3 (activated STAT3), nuclear fraction of SW480 (from UniProt P40763 1-770) | binds | binds | – | – |
| pY1068 EGFR (activated EGFR), nuclear fraction of SW480 (from UniProt P00533 25-1210) (receptor) | binds | binds | – | – |
